Experimental data as given in US20030232360.
Where cells or extracts were used, other partners may take part. For some assays here: A negative result means that nothing was seen under these conditions. For some assays here: Protein sequences can lack the tags named with them.

By UniProt entry, the sequences of proteins in these tests, tags left out. Residues count along the entry.
UniProt Q15717, 2-326: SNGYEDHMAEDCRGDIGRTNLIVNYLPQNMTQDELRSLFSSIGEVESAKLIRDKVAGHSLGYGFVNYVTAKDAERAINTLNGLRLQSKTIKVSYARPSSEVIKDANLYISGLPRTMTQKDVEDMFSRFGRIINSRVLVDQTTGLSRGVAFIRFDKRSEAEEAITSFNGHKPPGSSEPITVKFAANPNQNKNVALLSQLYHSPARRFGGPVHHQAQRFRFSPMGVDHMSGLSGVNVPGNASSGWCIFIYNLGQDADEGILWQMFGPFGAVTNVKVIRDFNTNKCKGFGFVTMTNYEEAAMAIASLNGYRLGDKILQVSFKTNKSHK

Tests used:
[1] = target: T1, AUF-1 (hnRNP D), endogenous in HeLa S100 (UniProt Q14103); assay: competition with a labelled probe; details: AUF-1 cross-link not competed by increasing synthetic ARE RNA; data not shown; protein in an extract
T1 sequence (looked up, limits assumed): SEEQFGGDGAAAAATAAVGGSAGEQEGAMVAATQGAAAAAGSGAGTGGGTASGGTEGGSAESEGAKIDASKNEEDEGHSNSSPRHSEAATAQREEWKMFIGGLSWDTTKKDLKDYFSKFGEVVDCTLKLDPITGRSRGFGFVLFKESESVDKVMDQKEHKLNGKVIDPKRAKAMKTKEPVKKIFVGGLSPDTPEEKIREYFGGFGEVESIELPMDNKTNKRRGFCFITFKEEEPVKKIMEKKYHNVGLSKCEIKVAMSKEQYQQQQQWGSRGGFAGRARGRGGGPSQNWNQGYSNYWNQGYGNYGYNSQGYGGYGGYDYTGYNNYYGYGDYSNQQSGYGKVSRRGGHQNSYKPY

[2] = target: HuR (HuA, ELAV family), endogenous in HeLa S100 (UniProt Q15717); assay: competition with a labelled probe; details: 5 pm ARE competitor RNA competes HuR cross-linking to SVARE-A60; protein in an extract

“AUUAUUUAUUAUUUAUUUAUUAUUUAUUUAUUUA [TNF-alpha ARE competitor RNA]”: no binding [1]; binds [2].
